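GFP-tagged normal-ribosome E. coli mixed with an RFP-tagged h34 humanized strain, with green signal taken as growth after 24 hours. The value is the change in activity at the highest dose tested; more negative means stronger inhibition. Active requires GFP to fall at least twice as much as RFP with growth loss below a set limit; inconclusive means no clear call; everything else is inactive.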

These entries are mostly ones the record files as inconclusive; other results of the assay are not listed here.

| # | structure | setting | activity change | filed as |
|---|---|---|---|---|
| 1 | `CSc1nc(SCCN(C)C)c2c3c(sc2n1)COC(C)(C)C3` | at 50 µM (top of the series) | 16.36 | inconclusive |
| 2 | `O=C(c1ccc(Cl)cc1)C1CCCN(Cc2cccc3cnccc23)C1` (stereo not drawn) | at 50 µM (top of the series) | -3.249 | inactive |
| 3 | `COC(=O)c1ccc(CSc2nc3ccccc3s2)o1` | at 50 µM (top of the series) | -1.52 | inactive |
| 4 | `Cc1cc(-c2ccc(C)c(S(=O)(=O)NCC3CCN(Cc4ccccc4F)CC3)c2)on1` | at 50 µM (top of the series) | 16.97 | inconclusive |
| 5 | `Nc1ncncc1-c1ccc2ccccc2c1` | at 50 µM (top of the series) | 4.203 | inconclusive |
| 6 | `NS(=O)(=O)c1ccc(NC(=O)CCC(=O)O)cc1` | at 50 µM (top of the series) | 29.51 | inconclusive |
| 7 | `COc1ccc(C2CC(=O)Oc3cc(C)cc(C)c32)cc1` (stereo not drawn) | at 50 µM (top of the series) | 11.61 | inconclusive |
| 8 | `CCC(CO)Oc1cc(NC(=O)c2ccccc2F)c2ncn(C(C)C)c2c1` (stereo not drawn) | at 50 µM (top of the series) | 20.25 | inconclusive |
| 9 | `CS(=O)(=O)N1CC2CCCN2c2ccc(C(F)(F)F)cc21` (stereo not drawn) | at 50 µM (top of the series) | 0.789 | inactive |
| 10 | `O=C(Nc1ccc(F)c(Cl)c1)C1CC2CCC1C2` (stereo not drawn) | at 50 µM (top of the series) | 17.52 | inconclusive |
| 11 | `Oc1ccc(-c2csc(Nc3ncccn3)n2)cc1` | at 50 µM (top of the series) | -9.696 | inconclusive |
| 12 | `COC(=O)c1ccc(CN2CCCC(CO)(Cc3ccccc3F)C2)cc1` (stereo not drawn) | at 50 µM (top of the series) | 11.6 | inconclusive |
| 13 | `CCOC(=O)C(CC)Sc1cc(C)nc2ccc(OC)cc12` (stereo not drawn) | at 50 µM (top of the series) | -29.4 | inconclusive |
| 14 | `Cn1cnc([N+](=O)[O-])c1Oc1ccccc1` | at 50 µM (top of the series) | 10.88 | inconclusive |
| 15 | `COc1ccc(Nc2nc3cc(-c4ccsc4)sc3c(=O)n2C)cc1OC` | at 50 µM (top of the series) | -42.66 | inconclusive |
| 16 | `Cc1noc(C)c1NC(=O)Nc1ccc2c(c1)C(=O)N([C@@H](C)CO)C[C@@H](C)[C@H](CN(C)C(=O)Nc1ccc3c(c1)OCO3)OCCCC[C@@H](C)O2` | at 50 µM (top of the series) | 40.35 | inconclusive |
| 17 | `CC(=O)c1ccc(-c2cccc([C@H]3[C@@H]4C=CC[C@@H](C)[C@@H]4C(=O)N3Cc3ccccc3)c2)cc1` | at 50 µM (top of the series) | 22.8 | inconclusive |
| 18 | `COc1cc2c(cc1OC)CN(CC(=O)Nc1ccccc1SC)CC2` | at 50 µM (top of the series) | 7.077 | inconclusive |
| 19 | `O=C(Nc1ccc(Cl)cc1)N1C[C@H]2[C@@H](c3ccccc31)[C@H](CO)N2C(=O)c1ccccn1` | at 50 µM (top of the series) | 17.27 | inconclusive |
| 20 | `C[C@@H](Nc1nc(-c2ccccc2)nc2c1oc1ccccc12)C(=O)O` | at 50 µM (top of the series) | 16.84 | inconclusive |
| 21 | `O=S1(=O)N[C@H](Cc2ccccc2)COc2cc(N3CCSCC3)ccc21` | at 50 µM (top of the series) | 2.485 | inactive |
| 22 | `Cc1onc(-c2ccccc2Cl)c1C(=O)Nc1ccc(Cl)cn1` | at 50 µM (top of the series) | 18.41 | inconclusive |
| 23 | `O=c1[nH]n2c(-c3ccccc3)nc(O)c2c2ccccc12` | at 50 µM (top of the series) | 4.51 | inconclusive |
| 24 | `CCn1cc(Cl)c(C(=O)Nc2cccc(C(F)(F)F)c2)n1` | at 50 µM (top of the series) | 3.578 | inconclusive |
| 25 | `O=C(CN1C(=O)c2ccccc2C1=O)Nc1cccc(S(=O)(=O)Nc2ccccc2Cl)c1` | at 50 µM (top of the series) | -13.87 | inconclusive |
| 26 | `CCOC(=O)c1cc2nc(-c3ccccc3)cc(C)n2n1` | at 50 µM (top of the series) | 8.19 | inactive |
| 27 | `COC(=O)c1cc2c(c3c4cc(F)ccc4n(S(=O)(=O)c4cccc(C)c4)c13)C(=O)N(Cc1ccco1)C2` | at 50 µM (top of the series) | 26.73 | inconclusive |
| 28 | `CC1C=Cc2ccccc2N1C(=O)c1ccccc1` (stereo not drawn) | at 50 µM (top of the series) | 0.045 | inconclusive |
| 29 | `O=C(COC(=O)c1ccc([N+](=O)[O-])o1)NC12CC3CC(CC(C3)C1)C2` | at 50 µM (top of the series) | -7.485 | inconclusive |
| 30 | `CC(=O)Nc1cccc(OCc2ccc([N+](=O)[O-])cc2)c1` | at 50 µM (top of the series) | -9.823 | inconclusive |
| 31 | `Cc1ccc(C(=O)Nc2ccc3ncccc3c2)cc1` | at 50 µM (top of the series) | 35.97 | inconclusive |
| 32 | `COc1cc2nc(Nc3ccc(F)cc3)nc(N)c2cc1OC` | at 50 µM (top of the series) | 25.54 | inconclusive |
| 33 | `O=C(NCc1ccc2c(c1)OCO2)C1CCCN1S(=O)(=O)c1ccc(Cl)cc1` (stereo not drawn) | at 50 µM (top of the series) | 4.94 | inconclusive |
| 34 | `O=C(CSCc1ccc(Br)cc1)NCc1ccccn1` | at 50 µM (top of the series) | 15.56 | inconclusive |
| 35 | `C[C@@H]1CN([C@@H](C)CO)C(=O)c2cccc(NC(=O)c3nc4ccccc4s3)c2O[C@@H]1CN(C)CC1CC1` | at 50 µM (top of the series) | 15.76 | inconclusive |
| 36 | `CC(=O)c1ccc(OCC(=O)Nc2ccc3c(c2)CCC3)cc1` | at 50 µM (top of the series) | 3.205 | inactive |
| 37 | `O=C1CCCc2c1nc(-c1ccc([N+](=O)[O-])cc1)n2O` | at 50 µM (top of the series) | 31.48 | inconclusive |
| 38 | `CC(C)(C)c1cc(-c2n[nH]c(=S)n2-c2ccc(Cl)cc2)n[nH]1` | at 50 µM (top of the series) | -0.515 | inconclusive |
| 39 | `O=C(O)C1(Nc2ccc([N+](=O)[O-])cc2[N+](=O)[O-])CCCC1` | at 50 µM (top of the series) | 22.83 | inconclusive |
| 40 | `CC1CCc2c(sc3ncn4c(SCC(=O)NCc5ccco5)nnc4c23)C1` (stereo not drawn) | at 50 µM (top of the series) | 23.71 | inconclusive |

Data taken from PubChem BioAssay AID977624, deposited by Broad Institute (2014).